# Reference: publication doi:10.1101/2025.09.30.679250
# B1: Cytochrome b-c1 complex subunit 8 (protein, UniProt Q9CQ69 1-82)
# chain: MGREFGNLARIRHVISYSLSPFEQRAFPSYFSKGIPNVLRRTRERILRVAPPFVVVYLIYTWGNQEFEQSKRKNPAMYENDK
# B2: mitochondrial ATP synthase subunit Atp5f1c (protein, UniProt Q91VR2 26-298)
# chain: ATLKDITRRLKSIKNIQKITKSMKMVAAAKYARAERELKPARVYGTGSLALYEKADIKAPEDKKKHLIIGVSSDRGLCGAIHSSVAKQMKNEVAALTAAGKEVMIVGVGEKIKGILYRTHSDQFLVSFKDVGRKPPTFGDASVIALELLNSGYEFDEGSIIFNQFKSVISYKTEEKPIFSLNTIATAETMSIYDDIDADVLQNYQEYNLANLIYYSLKESTTSEQSARMTAMDNASKNASDMIDKLTLTFNRTRQAVITKELIEIISGAAALD
# B3: Ndufa1 (protein, UniProt O35683 1-70)
# chain: MWFEILPGLAIMGVCLVIPGVSTAYIHKFTNGGKEKRVARVQYQWYLMERDRRISGVNRYYVSKGLENID
# B4: Ndufa10 (protein, UniProt Q99LC3 36-355)
# chain: LRYGLLAAILGDKTTKKLHEYSRVITVDGNICSGKNKLAKEIAQQLGMKHYPEAGIQYSSTTTGDGRPLDIEFSGSCSLEKFYDDPKSNDGNSYRLQSWLYASRLLQYADALEHLLSTGQGVVLERSIYSDFVFLEAMYNQGYIRKQCVDHYNEIKRLTLPEYLPPHAVIYIDVPVPEVQSRIQKKGDPHEMKVTSAYLQDIENAYKKTFLPKMSEMCEVLVYDSWEAEDPTKVVEDIEYLKYNKGPWLKQDDWTFHYLRMLVQDKTEVLNYTTIPVYLPEITIGAHQGSRIYNSFRELPGRKYAPGYNAEVGDKWIWLK
# B5: mitochondrial ATP synthase subunit Atp5po (protein, UniProt Q9DB20 24-213)
# chain: FAKLVRPPVQVYGIEGRYATALYSAASKEKKLDQVEKELLRVGQLLKDPKVSLAVLNPYIKRTVKVKSLNDITKREKFSPLTANLMNLLAENGRLGNTQGIISAFSTIMSVHRGEVPCTVTTASPLDDAVLSELKTVLKSFLSPNQILKLEIKTDPSIMGGMIVRIGEKYVDMSAKSKIQKLSKAMREML
# B6: Rcn2 (protein, UniProt Q8BP92 26-320)
# chain: SKAEELHYPQGEHRADYDREALLGVQEDVDEYVKLGHEEQQRRLQSIIKKIDSDSDGFLTENELSQWIQMSFKHYAMQEAKQQFVEYDKNSDGAVTWDEYNIQMYDRVIDFDENTALDDTEEGSFRQLHLKDKKRFEKANQDSGPGLSLEEFIAFEHPEEVDYMTEFVIQEALEEHDKNGDGFVSLEEFLGDYRRDPTANEDPEWILVEKDRFVNDYDKDNDGRLDPQELLSWVVPNNQGIAQEEALHLIDEMDLNSDKKLSEEEILENQDLFLTSEATDYGRQLHDDYFYHDEL
# B7: Myo1f (protein, UniProt P70248 1-1099)
# chain: MGSKERFHWQSHNVKQSGVDDMVLLSQITEDAIVRNLHKRFMDDYIFTYIGSVLISVNPFKQMPYFTDREIDLYQGAVQYEEPPHIYALTDNMYRNMLIDCENQCVIISGESGAGKTVAAKYIMGYISKVSGGGDKVQHVKDIILQSNPLLEAFGNAKTVRNNNSSRFGKYFEIQFSRGGEPDGGKISNFLLEKSRVVMQNENERNFHIYYQLLEGASQEQQQNLGIMSQDYYYYLNQSDTYKVEGTDDRSDFSETLSAMQVMGFRQACQQLVLQLVAGILHLGNISFCEEGNYARVESVDSLAFPAYLLGIDSGRLQEKLTSRKMDSKWGGRSESIDVTLNVEQAAYTRDALAKGLYARLFDFLVEAINRAMQKPQEEYSIGVLDIYGFEIFQKNGFEQFCINFVNEKLQQIFIELTLKAEQEEYVQEGIRWTPIEYFNNKIVCDLIENKLSPPGIMSVLDDVCATMHATGGGADQTLLQKLQAAVGTHEHFNSWSAGFVIHHYAGKVSYDVSGFCERNRDVLFSDLIELMQSSDQDFLRMLFPEKLNIDKKGRPSTAGSKIKKQANDLVSTLKKCTPHYIRCIKPNETKRPRDWEESRVKHQVEYLGLRENIRVRRAGFAYRRQFSKFLQRYAILTPETWPRWRGDERQGVQHLLRAVNMEPDQYQMGSTKVFVKNPESLFLLEEMRERKFDGFARTIQKAWRRHVAVRKYEEMREEASNILLNKKERRRNSINRNFVGNYLGLEERPELRQFLAKRERVDFADSVTKYDRRFKPIKRDLILTPKCVYVIGTEKVKRGPEKGLVREVLKKKLDIQALRGVSLSTRQDDFFILQEEAADTFLESIFKTEFVSLLCKRFEEAARRPLPLTFQDILQFRVKKKGWGGGGTRNVTFSAGQVNLAVLKAGGKTLTISLGDGLPKNSKPTRKGLAQGKPRRSAQAPTRAVPWASQGLNRNGATLFPRGEGPYTLEIYIWPQEFPEASTAIHLQPQDASRRPRARPPSEHSTEFLNVPDQGVAGMQRKRSIGQRPVPASRPKPQPRTHGPRCRALYQYIGQDVDELSFNVNEVIEILIEDSSGWWKGRLHGQEGLFPGNYVEKI
# Biological target: Recombinant L-CK1.2-V5-His6 fused to thioredoxin (pBAD-thio-topo-L-CK1.2-V5-His6)
# Assay: affinity purification with mass spectrometry
row,Binder,binding
1,B1,binds
2,B2,binds
3,B3,binds
4,B4,binds
5,B5,binds
6,B6,binds
7,B7,binds

# No constants are given. Whether binding was seen depends on the method and setting. In cells and extracts the contact can be indirect. These calls come from enrichment with a bait or labelling near it, and not all partners need be listed.
